Construct, isoform or probe ends are uncertain for at least one entry. The direction of at least one scale is not stated here. Protein sequences can lack the tags named with them.
Target: T1, FUS (fused in sarcoma) (UniProt P35637)
T1 sequence (looked up, limits assumed): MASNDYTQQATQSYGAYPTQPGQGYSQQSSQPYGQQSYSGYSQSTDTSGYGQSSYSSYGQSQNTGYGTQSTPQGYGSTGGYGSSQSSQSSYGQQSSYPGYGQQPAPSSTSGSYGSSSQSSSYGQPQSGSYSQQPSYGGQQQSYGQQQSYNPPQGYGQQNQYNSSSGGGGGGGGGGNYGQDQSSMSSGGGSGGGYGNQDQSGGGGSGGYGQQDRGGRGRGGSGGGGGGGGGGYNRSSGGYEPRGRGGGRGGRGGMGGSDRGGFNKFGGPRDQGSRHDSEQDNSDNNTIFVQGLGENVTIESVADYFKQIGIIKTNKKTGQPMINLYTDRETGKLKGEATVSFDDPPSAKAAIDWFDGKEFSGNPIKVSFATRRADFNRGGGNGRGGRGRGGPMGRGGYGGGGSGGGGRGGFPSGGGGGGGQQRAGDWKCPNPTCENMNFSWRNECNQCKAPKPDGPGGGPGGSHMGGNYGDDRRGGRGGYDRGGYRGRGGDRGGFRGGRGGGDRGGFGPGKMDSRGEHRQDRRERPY
Test: condensate partitioning, two-colour confocal dilute-phase measurement
Settings: 8% (w/v) PEG 10 kDa, FUS condensates, indirect evidence of interaction, not a Kd

UUGUAUUUUGAGCUAGUUUGGUGAC [GUG aptamer]
binding signal (dilute phase fraction of aptamer): 0.1
